The data set can be described thus: general procedure: solution-phase peptide synthesis; DCC / 1-hydroxybenzotriazole / N-methylmorpholine.
Setting [1] is: late stage modification step, TFA salt.
Setting [2] is: coupling step, TFA salt (deprotected intermediates).
Setting [3] is: late stage modification step, TFA salt (deprotected intermediates).

On to Lys(Nε-Cbz)-Leu-Gln-β-Ala-β-Lapachone, for which the step yield under setting [1] was 98%.
Take Lys(Nε-Cl-Cbz)-Leu-Gln-Leu-β-Lapachone: under setting [1], the step yield is reported as 65%.
“Morpholino-Ser(OBn)-Lys(Nε-Cbz)-Leu-Gln-β-Ala-β-Lapachone”: the step yield under setting [2] came to 36%.
For “Morpholino-Ser(OBn)-Lys(Nε-Cl-Cbz)-Leu-Gln-Leu-β-Lapachone”, under setting [2], the step yield came out at 81%.
For “Morpholino-Ser-Lys-Leu-Gln-Leu-β-Lapachone (SEQ ID NO:12) (SL-11154)”, the step yield under setting [3] was 14%.
On the same count and under the same terms, then “Morpholino-Ser-Lys-Leu-Gln-β-Ala-β-Lapachone”, with 24%.
For “Nα-Boc-Lys(Nε-Cbz)-Leu-Gln-β-Ala-β-Lapachone”, the step yield under setting [2] came to 42%.
Still for that read-out and setting: the same measure for “Nα-Boc-Lys(Nε-Cl-Cbz)-Leu-Gln-Leu-β-Lapachone”: 54%.

These data come from patent US7279502B2 (Cellgate, Inc., priority 1999, dated 2007).
